Our source for the binding values is patent publication US20110117021A1.

By UniProt entry, the sequences of proteins in these tests, tags left out.
UniProt Q16853: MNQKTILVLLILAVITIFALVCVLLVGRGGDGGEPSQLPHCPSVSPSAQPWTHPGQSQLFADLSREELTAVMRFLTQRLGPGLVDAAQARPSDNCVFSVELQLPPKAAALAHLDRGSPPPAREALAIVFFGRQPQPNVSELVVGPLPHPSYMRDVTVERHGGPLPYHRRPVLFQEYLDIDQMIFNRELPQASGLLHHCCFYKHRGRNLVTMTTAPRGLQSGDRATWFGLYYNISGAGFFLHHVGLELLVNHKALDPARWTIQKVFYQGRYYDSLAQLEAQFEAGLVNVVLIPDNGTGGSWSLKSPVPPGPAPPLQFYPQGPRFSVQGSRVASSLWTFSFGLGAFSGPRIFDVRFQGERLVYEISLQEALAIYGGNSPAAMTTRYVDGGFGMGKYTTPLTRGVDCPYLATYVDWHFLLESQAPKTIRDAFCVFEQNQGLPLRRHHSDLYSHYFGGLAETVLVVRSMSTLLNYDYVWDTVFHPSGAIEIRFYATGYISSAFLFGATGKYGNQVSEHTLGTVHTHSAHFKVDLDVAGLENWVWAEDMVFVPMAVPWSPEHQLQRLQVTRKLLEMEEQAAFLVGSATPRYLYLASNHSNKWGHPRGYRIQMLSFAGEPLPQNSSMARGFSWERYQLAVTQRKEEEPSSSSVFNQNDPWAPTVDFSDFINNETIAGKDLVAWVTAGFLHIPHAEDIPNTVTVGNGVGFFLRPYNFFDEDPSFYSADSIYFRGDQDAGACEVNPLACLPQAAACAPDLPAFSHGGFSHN

The assay deals with recombinant human Vascular Adhesion Protein-1 (rhVAP-1), purified from CHO cells (human) (UniProt Q16853). Briefly: time-resolved immunofluorometric assay, plate coated with rhVAP-1.

Results are given in words; binding and its absence hold for the method and conditions named. Some results given as binding are weak or reduced against the parent protein; the word gives no strength.

B1: fully human anti-VAP-1 monoclonal antibody 8C10 (hybridoma-derived) (antibody, human IgG1, V domains shown)
VH: QVQLVESGGGVVQPGRSLRLSCAASGFTFFSYAMHWVRQTPGKGLEWVAVIWFDGSNENYVDSVKGRFTISRDNSKNTLYLQMNTLRAEDTAVYYCARDAWSYFDYWGQGTLVTVSS
VL: VIQLTQSPSSLSASVGDRVTITCRASQGISRALAWYQQKPGKGPKLLIYDASSLESGVPSRFSGSGSGTDFTLTISSLQPEDFATYYCQQFNSYPLTFGGGTKVEIK
Turning to B1, the binding result was “binds”.

B2: fully human anti-VAP-1 monoclonal antibody 3F10 (hybridoma-derived) (antibody, human IgG1, V domains shown)
VH: QVQLVESGGGVVQPGRSLRLSCAASGFTFSSYAMHWVRQAPGKGLEWVAVLWFDGSNEDYADSVKGRFTISRDNSKNTLYLQMNSLRAEDTAVYYCARDGWGYFDYWGQGTLVTVSS
VL: AIQLTQSPSSLSASVGDRVTITCRASQGISRALAWYQQKPGKAPKLLIYDASNLERGVPSRFSGSGSGTDFTLTISSLQPEDFATYYCQQFNSFPLTFGGGTKVEIK
As for B2, the binding entry is recorded as “binds”.
